This is an account of results in PubChem BioAssay AID1347423 (Functional Genomics Laboratory (NCATS/FGL), 2020).

About 210 (0.4%) of roughly 52,000 sequences were called active.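 How the source made its calls: active means gene whose silencing raises cell survival under the drug, median off-target-corrected z-score across its silencing RNAs 2 or more; inactive means the rest.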 The list shows a part of the results.

A short description of this experiment: Resistance to Poly (ADP-Ribose) Polymerase inhibitor: Gene Identification via Genome-wide siRNA Screen. The conditions noted are these: mouse BRCA2 R2336H ES cells, olaparib, CellTiter-Glo viability; hits give high values. In short, it runs like this:
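Genome-wide siRNA screen (3 siRNAs/gene, 20 nM) in mouse ES cells carrying hypomorphic BRCA2 R2336H; olaparib 500 nM added 48 h post-transfection, CellTiter-Glo viability 72 h later. Normalized to plate-median negative control; MAD z-scores, gene median, seed-adjusted.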
(In ATP-based viability assays light output follows the ATP content of the culture.)
With “GGUGUGGUACGACAUGUUCTT against 2610510L01Rik”, the z-score was inactive: -0.332.
For the sequence CCUCAGGUUAUUGAAUAUUTT against Rapgef6, the z-score is inactive: 0.762.
Regarding GGAUUUCAUGAUUCAGGGUTT against Ppih, the z-score was inactive: 0.677.
On to GGAAGUGGAACACAUGAUCTT against Zfp346, for which the z-score was inactive: -0.778.
Take “CCGGAUGGGAAUCGCUAAATT against 9330176C04Rik”: the z-score is inactive: 0.418.
In the case of GGUCUUAUGGGAAAAUUAGTT against Lamc2, the z-score is inactive: 0.954.
Then “GGAAGUAUGUGUUUCUCAGTT against A030004J04Rik”, with inactive: 2.08.
Then GGAUGGUUUUCGUCUGACGTT against Umod, with inactive: -2.93; and GGUUAUGAUGGGACUUCUCTT against Pr1, with inactive: -0.336.
With “GGUUAUAACAGUCUUAGCATT against 4930577M16Rik”, the z-score was inactive: 0.687.
For GGGAUAUGUGAAGCCUCAGTT against Mospd3, the z-score was inactive: 0.463.
As for CGGUGCCCUACAUGCUAAATT against Ebi3, the z-score is inactive: -0.141.
Under “CCGUGAUAAUGUAACACCUTT against A230098A12Rik” stands inactive: 2.12; under “CGAGAUGUGUGUUAAAGGATT against D530033C11Rik”, inactive: 0.114; under GGGAUAGGAUUGCAUCAGUTT against Olfr356, inactive: -0.532.
On to “GGGCAUCAAAUUAAGAUCATT against D830007F02Rik”, for which the z-score is inactive: 1.16.
As for GUGUGCCACAUACUGGUCCTT against Olfr806, the z-score is inactive: 0.479.
With GGGUUAUCAACAAAAAUGATT against Agtr1b, the z-score is inactive: -1.09.
Then GGAGUCCUGUUCUUCUUUATT against Trpv4, with inactive: -0.684.
Take GGAAAAUGUUUGGUGUAAUTT against Zfp85-rs1: the z-score is inactive: 0.943.
Under “GGAAUGGGAUUACACCUACTT against 1110002H13Rik” stands inactive: -0.223; under CCUUCUCUAGCUAUGGCUATT against Gabrg3, inactive: -0.341.
Regarding GGGUUUUGACUUUCGUUUUTT against Etnk2, the z-score was inactive: 1.22.
In the case of “GCUUGGCCGUGAUUGUUGCTT against B930041F14Rik”, the z-score is inactive: 0.0533.
Consider GGAAUAUUCACAGUCCGAGTT against Tex27, for which the z-score is inactive: 0.0149.
With GGAGGAUCAUGGUUGGGAUTT against Zfp192, the z-score was inactive: -0.117.
GAGUGUUUCAGAUUCUUCATT against Klra8: the z-score was inactive: 0.37.
With GCUCAGAUAAUGGCCUACATT against Smarca4, the z-score was inactive: -1.27.
GGACUUCUCCAUCCUGCUUTT against Alg1: the z-score is inactive: 0.382.
Regarding CCUUUAAAGGGCAUAUUCATT against Rsn, the z-score was inactive: 0.914.
Regarding “GGAAAAACUACUCAAGGAGTT against B130050I23Rik”, the z-score is inactive: -0.909.
As to GGUGUUGGGCUACAAGGAUTT against Epb4.9, the z-score was inactive: 0.944.
Under GCUCCGGAACAGAUAAAACTT against Csrp2bp stands inactive: 0.355; under GGACAAUUUUUCUUCUCCATT against Tsnax, inactive: 1.26.
Then GCCCUUACAUAAUAGCUUGTT against Tacr2, with inactive: 0.0384.
Then GGAGCAGGUGUUGAAAGACTT against Gtf2a1lf, with inactive: 0.0481.
For “CCCAGCAGAAUAACUGCCATT against 2610017I09Rik”, the z-score is inactive: -0.905.
Then GGAAGAAGACGGACUUCGGTT against Vapb, with inactive: 0.553; and “CCCACCAGAUUUCUACACCTT against 2210413P10Rik”, with inactive: 1.05.
As for GCCAACAUGAGCUCAACAATT against Fkhl18, the z-score is inactive: -0.75.
GGCUAGUGUCAGAAAACCCTT against Tfrc: the z-score is inactive: 1.27.
GGAACUGCUGUGGAGAAAGTT against LOC229512: the z-score is inactive: -1.24.
Regarding GGAAGAGUCAACAUAAUAGTT against Galk2, the z-score was inactive: -1.16.
Turning to GGCUAUGUGAAUGAAGGGATT against Fbxl14, the z-score is inactive: -0.24.
In the case of GGUUUGUGCGGACUUGAUCTT against Rps20, the z-score was inactive: -3.23.
Then GCUGCUAUAUCUGAAAACATT against BC052883, with inactive: 0.519; and UAGACACUAACCAGCUGGATT against Olfr1307, with inactive: -2.34.
In the case of “CCUGGUACAAUCAAACUGCTT against 9930039A11Rik”, the z-score is inactive: 1.54.
Turning to GGUGCUCAAUAAACACAUGTT against Zfp98, the z-score is inactive: 3.42.
For GGUUUUGUGAGCAACCUGCTT against Abcb6, the z-score was inactive: -0.496.
For the sequence CGAUGCAUUUUAAAGAUGUTT against Pde8b, the z-score was inactive: -0.432.
Then GCCCGUCGGAUAUAAGAUUTT against Cd3z, with inactive: -0.659.
On to GGUGACAAACUGAUUUUAATT against Mov10l1, for which the z-score is inactive: 0.808.
CGGACUGAUAACUUGGGAATT against Mtpn: the z-score was inactive: -0.925.
For GGGCCUAUAUAACAUCUUGTT against Usp11, the z-score was active: 0.581.
Take GGAAAUGAAGCCAAAAUAATT against Rab33b: the z-score was inactive: 0.455.
As for CCAGAACUCUCGACACCCUTT against Tlx1, the z-score is inactive: 0.178.
Regarding “GCAAAUUGACCAGUCUUUUTT against D230025D16Rik”, the z-score is inactive: 2.45.
“CGCACAGACUUGCUUGGACTT against 4933401K09Rik”: the z-score is inactive: -0.746.
For GGCCUACCUUACCCUAAGATT against Adam32, the z-score is inactive: -0.43.
Under GGAGAGCAUUCCUUGGAUUTT against Lgr8 stands inactive: -0.756.
In the case of GCAGCAGUAAUGAUGGAUCTT against Ncoa3, the z-score is inactive: 0.728.
Consider GGAUCGAGCCAAGAGCUGUTT against Rohn, for which the z-score was inactive: -0.0164.
With GCGAAGCUAGGUUUACUGUTT against Gpr132, the z-score is inactive: 1.89.
In the case of CCUGUUGUAUUGUUUAGCGTT against Eif2c2, the z-score is inactive: 0.0353.
As to GGCUCUCAAACCCAUGUACTT against Foxf2, the z-score is inactive: -1.86.
